Here are results for one compound from the M2OR odorant receptor database.

This is a selection; strong and weak results do not stand in their true shares. The calls were merged from several studies; some rest on single wells.

Details in all cases: stereoisomer not certain
The target of assay [1] is T1, UniProt Q8VGJ3.
T1 sequence (whole entry): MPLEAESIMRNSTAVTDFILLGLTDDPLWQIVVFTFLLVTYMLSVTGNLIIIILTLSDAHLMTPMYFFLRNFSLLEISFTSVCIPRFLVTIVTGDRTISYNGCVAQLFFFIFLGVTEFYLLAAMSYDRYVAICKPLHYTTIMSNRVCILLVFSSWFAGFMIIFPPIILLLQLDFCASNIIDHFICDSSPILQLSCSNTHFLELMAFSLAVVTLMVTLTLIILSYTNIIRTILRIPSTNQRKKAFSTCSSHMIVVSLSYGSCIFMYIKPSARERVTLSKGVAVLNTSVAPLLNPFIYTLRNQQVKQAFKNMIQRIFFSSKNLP
The method in brief: (§1)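 Whether a receptor–molecule pair is responsive (active) rests on the original authors' judgment that its measured signal was statistically different from baseline. Pairs without that judgment are non-responsive (inactive). Sources used varied assay methods, commonly transient luciferase assays in mammalian cell lines.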

The target in assay [2] is T2, UniProt Q8VGL0.
T2 sequence (whole entry): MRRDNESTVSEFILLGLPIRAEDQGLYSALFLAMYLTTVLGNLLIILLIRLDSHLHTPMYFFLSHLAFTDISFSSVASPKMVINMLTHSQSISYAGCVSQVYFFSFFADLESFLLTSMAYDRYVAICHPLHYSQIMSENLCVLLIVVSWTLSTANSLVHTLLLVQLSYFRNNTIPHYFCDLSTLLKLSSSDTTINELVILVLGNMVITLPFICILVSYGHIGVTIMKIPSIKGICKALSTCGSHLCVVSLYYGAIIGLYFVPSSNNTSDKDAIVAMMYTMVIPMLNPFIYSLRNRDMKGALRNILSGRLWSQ
The method in brief:
as §1

The target in assay [3] is T3, UniProt Q8VGU3.
T3 sequence (whole entry): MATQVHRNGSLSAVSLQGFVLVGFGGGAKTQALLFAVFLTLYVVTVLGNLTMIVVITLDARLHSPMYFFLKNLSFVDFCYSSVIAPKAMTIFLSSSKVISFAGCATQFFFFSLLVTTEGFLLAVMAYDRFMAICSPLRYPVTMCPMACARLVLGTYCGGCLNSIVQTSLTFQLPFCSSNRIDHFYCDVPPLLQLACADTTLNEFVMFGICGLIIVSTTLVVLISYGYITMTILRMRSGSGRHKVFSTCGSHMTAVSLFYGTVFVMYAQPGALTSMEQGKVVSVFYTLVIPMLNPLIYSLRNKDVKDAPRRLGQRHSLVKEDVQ
The gist of the method:
as §1

The target in assay [4] is T4, UniProt Q8VGV7.
T4 sequence (whole entry): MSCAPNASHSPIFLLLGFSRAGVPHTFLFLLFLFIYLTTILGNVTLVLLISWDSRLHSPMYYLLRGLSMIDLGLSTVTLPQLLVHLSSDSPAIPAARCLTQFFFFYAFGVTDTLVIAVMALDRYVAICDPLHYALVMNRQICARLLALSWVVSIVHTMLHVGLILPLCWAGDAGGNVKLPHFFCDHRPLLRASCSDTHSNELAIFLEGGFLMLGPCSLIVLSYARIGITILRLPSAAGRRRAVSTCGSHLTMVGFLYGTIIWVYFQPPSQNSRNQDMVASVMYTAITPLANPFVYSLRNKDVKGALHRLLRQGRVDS
The gist of the method:
as §1

The target in assay [5] is T5, UniProt Q8VGX3.
T5 sequence (whole entry): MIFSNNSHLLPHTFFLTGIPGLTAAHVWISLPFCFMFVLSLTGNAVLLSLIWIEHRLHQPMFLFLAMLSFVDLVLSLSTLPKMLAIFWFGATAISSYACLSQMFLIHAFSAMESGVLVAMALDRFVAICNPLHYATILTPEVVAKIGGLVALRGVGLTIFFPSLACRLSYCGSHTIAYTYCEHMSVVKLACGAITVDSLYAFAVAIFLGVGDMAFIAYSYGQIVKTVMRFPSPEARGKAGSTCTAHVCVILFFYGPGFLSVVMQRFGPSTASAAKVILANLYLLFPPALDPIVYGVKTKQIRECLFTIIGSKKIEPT
The method in brief:
as §1

Assay [6] deals with T6, UniProt Q8VGX5.
T6 sequence (whole entry): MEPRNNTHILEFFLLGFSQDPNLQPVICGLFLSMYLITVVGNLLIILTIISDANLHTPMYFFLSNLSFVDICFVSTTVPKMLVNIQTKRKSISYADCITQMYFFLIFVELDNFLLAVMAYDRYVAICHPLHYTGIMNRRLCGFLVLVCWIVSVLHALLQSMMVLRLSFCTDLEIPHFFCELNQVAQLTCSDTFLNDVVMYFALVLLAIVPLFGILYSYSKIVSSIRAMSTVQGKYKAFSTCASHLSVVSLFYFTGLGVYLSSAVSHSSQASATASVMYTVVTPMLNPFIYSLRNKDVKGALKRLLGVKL
The gist of the method:
as §1

Assay [7] addresses T7, UniProt Q8VGZ2.
T7 sequence (whole entry): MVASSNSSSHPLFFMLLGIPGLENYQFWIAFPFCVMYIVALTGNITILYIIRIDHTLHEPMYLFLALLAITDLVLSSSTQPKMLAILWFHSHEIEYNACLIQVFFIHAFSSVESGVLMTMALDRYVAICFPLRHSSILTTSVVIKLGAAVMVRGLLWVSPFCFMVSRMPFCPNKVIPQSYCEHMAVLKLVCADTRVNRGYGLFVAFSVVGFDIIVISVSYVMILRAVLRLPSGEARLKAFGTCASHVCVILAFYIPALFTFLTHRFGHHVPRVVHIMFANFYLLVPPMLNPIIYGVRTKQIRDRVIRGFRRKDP
The method in brief: as §1
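Note: active if original authors judged signal statistically different from baseline.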

Regarding `CC12CCC(CC1)C(C)(C)O2`, the “odorant receptor agonist call” value in assay [1], in assay [2], in assay [3], in assay [4], in assay [5] and in assay [7] was “inactive” throughout. The “odorant receptor agonist call” value in assay [6] is “active”.
